These results are taken from the supplement of paper PMC10849652.

The chains behind the UniProt entries cited, without tags or fusion partners. Where a name states a change or a piece, a line headed by the entry shows the natural chain unless it says otherwise.
UniProt Q8IYS1: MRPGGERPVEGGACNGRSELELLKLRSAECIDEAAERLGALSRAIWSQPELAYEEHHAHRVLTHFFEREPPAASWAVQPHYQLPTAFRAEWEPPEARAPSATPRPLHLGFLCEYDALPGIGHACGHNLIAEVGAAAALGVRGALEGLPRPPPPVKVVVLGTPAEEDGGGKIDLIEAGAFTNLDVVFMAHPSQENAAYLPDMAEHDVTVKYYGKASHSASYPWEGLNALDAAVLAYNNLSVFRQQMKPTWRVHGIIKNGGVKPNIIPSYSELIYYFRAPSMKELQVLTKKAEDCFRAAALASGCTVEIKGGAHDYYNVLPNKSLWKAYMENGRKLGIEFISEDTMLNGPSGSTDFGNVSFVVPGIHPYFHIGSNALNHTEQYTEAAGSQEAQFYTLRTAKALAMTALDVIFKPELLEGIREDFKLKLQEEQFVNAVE
UniProt O95707: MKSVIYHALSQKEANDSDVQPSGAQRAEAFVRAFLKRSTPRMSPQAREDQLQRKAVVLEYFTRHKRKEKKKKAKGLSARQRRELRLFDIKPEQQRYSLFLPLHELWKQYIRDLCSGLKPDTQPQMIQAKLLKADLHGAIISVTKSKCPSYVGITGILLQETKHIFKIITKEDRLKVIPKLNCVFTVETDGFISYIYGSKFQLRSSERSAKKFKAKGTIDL
UniProt O00469: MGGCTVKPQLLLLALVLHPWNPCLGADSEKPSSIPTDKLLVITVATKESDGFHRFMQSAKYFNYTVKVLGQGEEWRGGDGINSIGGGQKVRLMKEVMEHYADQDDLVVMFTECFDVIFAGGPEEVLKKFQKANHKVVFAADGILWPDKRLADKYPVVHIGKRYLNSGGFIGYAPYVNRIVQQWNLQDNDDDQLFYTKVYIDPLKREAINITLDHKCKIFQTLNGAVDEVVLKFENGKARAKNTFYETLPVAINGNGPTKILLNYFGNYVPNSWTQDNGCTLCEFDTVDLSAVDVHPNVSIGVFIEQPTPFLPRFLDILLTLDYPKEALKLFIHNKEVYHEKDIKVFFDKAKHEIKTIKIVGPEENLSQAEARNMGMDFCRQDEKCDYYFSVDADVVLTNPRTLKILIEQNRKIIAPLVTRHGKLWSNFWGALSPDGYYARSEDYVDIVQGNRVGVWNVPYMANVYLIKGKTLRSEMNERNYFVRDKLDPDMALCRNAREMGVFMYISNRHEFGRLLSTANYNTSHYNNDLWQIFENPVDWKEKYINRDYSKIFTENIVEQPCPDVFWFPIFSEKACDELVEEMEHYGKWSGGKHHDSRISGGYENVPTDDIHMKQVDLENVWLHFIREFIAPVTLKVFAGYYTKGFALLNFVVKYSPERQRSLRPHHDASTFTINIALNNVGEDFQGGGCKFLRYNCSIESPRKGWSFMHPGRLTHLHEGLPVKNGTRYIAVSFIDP
UniProt Q9P215: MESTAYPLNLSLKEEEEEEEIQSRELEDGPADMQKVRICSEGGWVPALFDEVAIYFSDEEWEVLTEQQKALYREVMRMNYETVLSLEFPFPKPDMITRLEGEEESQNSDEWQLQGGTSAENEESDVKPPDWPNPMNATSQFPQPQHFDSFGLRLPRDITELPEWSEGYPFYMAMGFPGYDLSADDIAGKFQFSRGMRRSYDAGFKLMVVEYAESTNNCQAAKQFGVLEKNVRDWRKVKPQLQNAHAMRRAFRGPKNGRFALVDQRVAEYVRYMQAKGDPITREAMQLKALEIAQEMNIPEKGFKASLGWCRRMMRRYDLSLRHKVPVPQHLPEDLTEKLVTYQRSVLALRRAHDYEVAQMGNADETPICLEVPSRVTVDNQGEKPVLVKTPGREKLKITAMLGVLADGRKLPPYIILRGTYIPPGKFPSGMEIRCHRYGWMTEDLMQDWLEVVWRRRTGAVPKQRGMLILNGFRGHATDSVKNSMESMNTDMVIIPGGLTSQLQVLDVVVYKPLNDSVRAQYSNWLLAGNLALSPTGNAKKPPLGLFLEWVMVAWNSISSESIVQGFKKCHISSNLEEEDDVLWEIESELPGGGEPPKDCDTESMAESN
UniProt Q9Y2G5: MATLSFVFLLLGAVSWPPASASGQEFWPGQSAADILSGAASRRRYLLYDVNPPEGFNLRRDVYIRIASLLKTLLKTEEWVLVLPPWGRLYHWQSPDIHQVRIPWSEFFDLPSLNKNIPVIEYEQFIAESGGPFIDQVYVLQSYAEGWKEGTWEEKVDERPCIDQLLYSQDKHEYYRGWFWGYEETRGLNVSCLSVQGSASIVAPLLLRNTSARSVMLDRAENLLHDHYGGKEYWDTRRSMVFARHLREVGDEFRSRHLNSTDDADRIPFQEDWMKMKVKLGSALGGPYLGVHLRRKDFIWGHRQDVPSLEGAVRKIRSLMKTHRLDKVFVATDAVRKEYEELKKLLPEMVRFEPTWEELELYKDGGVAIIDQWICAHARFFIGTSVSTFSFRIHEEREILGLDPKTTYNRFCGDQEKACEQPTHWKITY
UniProt Q9H307: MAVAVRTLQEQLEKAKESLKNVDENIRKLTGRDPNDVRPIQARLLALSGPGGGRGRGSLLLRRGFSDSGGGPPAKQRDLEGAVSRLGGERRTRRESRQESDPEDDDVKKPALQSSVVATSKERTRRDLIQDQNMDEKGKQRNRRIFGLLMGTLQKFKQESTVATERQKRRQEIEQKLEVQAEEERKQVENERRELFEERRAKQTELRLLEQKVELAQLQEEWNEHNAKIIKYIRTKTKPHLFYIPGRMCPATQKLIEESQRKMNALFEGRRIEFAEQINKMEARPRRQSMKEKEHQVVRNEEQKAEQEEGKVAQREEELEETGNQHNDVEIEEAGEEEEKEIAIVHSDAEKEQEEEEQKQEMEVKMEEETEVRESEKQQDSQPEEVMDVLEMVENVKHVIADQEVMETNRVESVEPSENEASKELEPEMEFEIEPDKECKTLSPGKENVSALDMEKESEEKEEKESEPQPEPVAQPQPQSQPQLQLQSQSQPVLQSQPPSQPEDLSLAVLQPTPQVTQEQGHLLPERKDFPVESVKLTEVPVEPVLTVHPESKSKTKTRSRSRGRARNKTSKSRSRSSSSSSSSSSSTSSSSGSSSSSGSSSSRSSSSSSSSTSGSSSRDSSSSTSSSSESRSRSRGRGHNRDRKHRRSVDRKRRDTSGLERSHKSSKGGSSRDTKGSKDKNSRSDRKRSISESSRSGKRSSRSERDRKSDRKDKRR
UniProt P41247: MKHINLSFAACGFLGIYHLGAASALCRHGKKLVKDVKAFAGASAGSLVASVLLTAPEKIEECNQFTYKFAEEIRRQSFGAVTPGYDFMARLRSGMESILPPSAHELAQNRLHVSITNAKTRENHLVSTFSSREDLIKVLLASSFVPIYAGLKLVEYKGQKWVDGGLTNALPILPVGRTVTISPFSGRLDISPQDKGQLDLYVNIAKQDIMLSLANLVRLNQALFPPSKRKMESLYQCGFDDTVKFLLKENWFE
UniProt P0CG38, whole entry, looked up: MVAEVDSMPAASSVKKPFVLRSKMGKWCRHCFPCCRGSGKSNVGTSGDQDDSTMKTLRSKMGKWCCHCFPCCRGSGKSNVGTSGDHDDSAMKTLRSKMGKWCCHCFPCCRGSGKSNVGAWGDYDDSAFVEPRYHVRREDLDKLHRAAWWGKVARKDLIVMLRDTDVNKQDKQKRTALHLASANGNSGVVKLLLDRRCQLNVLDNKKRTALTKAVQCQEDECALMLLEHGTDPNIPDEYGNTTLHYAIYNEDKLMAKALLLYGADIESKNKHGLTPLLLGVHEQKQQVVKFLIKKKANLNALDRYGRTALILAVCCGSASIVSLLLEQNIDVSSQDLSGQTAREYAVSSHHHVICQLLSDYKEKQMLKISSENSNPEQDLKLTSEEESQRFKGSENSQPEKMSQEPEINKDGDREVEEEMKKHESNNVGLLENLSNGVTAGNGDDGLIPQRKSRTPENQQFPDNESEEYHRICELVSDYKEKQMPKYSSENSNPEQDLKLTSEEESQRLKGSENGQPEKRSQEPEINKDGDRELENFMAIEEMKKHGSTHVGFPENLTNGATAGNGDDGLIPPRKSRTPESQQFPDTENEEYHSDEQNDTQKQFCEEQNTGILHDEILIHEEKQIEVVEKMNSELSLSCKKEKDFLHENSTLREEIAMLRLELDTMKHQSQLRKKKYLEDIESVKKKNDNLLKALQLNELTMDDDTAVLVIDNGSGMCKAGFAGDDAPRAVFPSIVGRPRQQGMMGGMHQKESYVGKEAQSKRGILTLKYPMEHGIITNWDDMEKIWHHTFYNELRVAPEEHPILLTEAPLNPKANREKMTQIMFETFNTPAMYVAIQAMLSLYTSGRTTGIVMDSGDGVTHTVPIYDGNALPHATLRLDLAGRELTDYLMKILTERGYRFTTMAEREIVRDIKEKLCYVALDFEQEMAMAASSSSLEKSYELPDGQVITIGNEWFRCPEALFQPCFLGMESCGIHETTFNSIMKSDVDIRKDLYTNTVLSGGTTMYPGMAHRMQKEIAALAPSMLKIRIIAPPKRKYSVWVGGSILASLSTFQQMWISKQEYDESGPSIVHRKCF
UniProt Q04941: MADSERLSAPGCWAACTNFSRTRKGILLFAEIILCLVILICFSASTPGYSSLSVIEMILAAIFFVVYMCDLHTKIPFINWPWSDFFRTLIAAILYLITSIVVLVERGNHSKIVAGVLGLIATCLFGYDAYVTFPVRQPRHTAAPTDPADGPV
UniProt Q15063: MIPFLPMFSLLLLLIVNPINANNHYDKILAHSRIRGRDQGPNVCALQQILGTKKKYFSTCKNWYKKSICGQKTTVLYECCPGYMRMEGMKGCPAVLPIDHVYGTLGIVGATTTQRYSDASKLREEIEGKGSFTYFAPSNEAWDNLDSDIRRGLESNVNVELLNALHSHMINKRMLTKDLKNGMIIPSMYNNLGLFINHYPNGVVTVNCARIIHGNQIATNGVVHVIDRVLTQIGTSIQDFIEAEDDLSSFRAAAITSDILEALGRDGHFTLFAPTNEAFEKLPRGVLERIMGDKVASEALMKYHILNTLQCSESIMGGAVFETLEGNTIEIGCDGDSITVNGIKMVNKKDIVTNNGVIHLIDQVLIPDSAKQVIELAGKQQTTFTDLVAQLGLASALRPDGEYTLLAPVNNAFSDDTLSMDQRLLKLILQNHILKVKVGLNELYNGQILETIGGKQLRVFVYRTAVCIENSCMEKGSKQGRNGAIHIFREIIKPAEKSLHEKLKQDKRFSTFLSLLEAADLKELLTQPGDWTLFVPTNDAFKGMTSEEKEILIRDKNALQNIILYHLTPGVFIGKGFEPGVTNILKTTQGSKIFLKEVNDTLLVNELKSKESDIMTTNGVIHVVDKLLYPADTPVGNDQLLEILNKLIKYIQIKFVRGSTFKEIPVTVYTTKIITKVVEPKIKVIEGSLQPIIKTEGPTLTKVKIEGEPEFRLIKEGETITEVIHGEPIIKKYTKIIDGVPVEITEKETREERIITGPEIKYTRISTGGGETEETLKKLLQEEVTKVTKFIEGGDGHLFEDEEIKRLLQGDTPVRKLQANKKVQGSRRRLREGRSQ
UniProt Q15181: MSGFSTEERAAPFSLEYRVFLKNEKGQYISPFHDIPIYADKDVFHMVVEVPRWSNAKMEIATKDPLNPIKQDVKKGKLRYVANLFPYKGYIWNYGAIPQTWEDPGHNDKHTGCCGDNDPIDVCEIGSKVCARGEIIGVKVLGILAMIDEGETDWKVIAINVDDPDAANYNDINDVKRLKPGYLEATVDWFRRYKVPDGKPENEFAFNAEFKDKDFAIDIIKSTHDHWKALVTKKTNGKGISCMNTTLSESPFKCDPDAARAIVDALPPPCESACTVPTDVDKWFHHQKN
UniProt Q8TC44: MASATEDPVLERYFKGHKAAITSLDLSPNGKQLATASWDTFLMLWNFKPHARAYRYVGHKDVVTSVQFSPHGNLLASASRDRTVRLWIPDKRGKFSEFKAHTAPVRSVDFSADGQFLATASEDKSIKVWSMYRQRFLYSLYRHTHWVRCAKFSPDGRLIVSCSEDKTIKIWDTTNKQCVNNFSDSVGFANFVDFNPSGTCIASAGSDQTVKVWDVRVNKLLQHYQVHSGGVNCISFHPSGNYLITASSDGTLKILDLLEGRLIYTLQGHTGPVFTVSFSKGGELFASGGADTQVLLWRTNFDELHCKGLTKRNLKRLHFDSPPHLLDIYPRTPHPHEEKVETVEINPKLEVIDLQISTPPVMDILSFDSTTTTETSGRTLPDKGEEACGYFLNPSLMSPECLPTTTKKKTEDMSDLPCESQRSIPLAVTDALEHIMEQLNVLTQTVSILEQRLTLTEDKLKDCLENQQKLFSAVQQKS
UniProt Q9NRY6: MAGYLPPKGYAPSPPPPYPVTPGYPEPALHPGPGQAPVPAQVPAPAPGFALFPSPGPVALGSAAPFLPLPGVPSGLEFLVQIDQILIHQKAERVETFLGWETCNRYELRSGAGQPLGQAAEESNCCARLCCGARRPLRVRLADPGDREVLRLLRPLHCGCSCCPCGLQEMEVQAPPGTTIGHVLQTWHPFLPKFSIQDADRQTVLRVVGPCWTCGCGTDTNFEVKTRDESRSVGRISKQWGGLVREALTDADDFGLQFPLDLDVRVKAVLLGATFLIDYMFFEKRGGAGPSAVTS

Some of the results follow.

Compound in this assay: c1cn2cc(-c3ccc4cn[nH]c4c3)nc(Nc3ccc(N4CCOCC4)cc3)c2n1 [entospletinib]
Description: log2 fold change, soluble protein after heating vs DMSO (PISA); higher = thermal stabilisation; K562 lysate, 10 uM; active = over 0.2 and 3.5 SD of the protein, either way, in both replicates (recomputed). In short, it runs like this: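 Quantification was by TMTpro 16plex LC-MS/MS with equalised channel sums, applied to the supernatant after 21,000xg for 90 min. Samples were crude K562 extract at 1 mg/mL protein in PBS pH 7.4 with 1 mM MgCl2, treated with 10 μM compound for 30 min, heated for 3 min across 48°C-58°C, pooled and brought to 0.5% NP-40 at 4°C. Values are log-two fold changes in thermal stability relative to solvent controls, from duplicates.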
In the case of POLR2A, A0A590UJN4, the log2 fold change is inactive: 0.013. Turning to PML isoform 11 (UniProt P29590), the log2 fold change was inactive: -0.003.

PPAT (UniProt Q06203): the log2 fold change was inactive: 0.026. Consider PNMA8A (UniProt Q86V59), for which the log2 fold change is inactive: -0.056. Turning to PLEKHG4 (UniProt Q58EX7), the log2 fold change is inactive: -0.056.

Take PM20D2 (UniProt Q8IYS1): the log2 fold change was inactive: -0.391. Turning to PLEKHH2 (UniProt E5RGK1), the log2 fold change was inactive: 0.256.

As for POC1A (UniProt Q8NBT0), the log2 fold change was inactive: -0.142.

In the case of POP4 (UniProt O95707), the log2 fold change was inactive: -0.023. Under PLOD2 isoform 2 (UniProt O00469) stands inactive: -0.165. Regarding POLR2B (UniProt P30876), the log2 fold change is inactive: -0.008.

On to POGK (UniProt Q9P215), for which the log2 fold change is inactive: 0.3. For PPFIBP1 (UniProt Q86W92) the value was inactive: -0.019; for PLS1 (UniProt Q14651), inactive: 0.005; for POFUT2 (UniProt Q9Y2G5), inactive: -0.026. Consider POLR2K (UniProt P53803), for which the log2 fold change is inactive: 0.025.

Turning to PLIN3 (UniProt O60664), the log2 fold change was inactive: 0.002.

With PNN (UniProt Q9H307), the log2 fold change is inactive: 0.009. As for PNPLA4 (UniProt P41247), the log2 fold change was inactive: -0.046. Under POTEI (UniProt P0CG38) stands inactive: 0.036; under PLP2 (UniProt Q04941), inactive: -0.112. As for POLR2F (UniProt U3KPV3), the log2 fold change is inactive: -0.113. Under PPFIBP2 (UniProt Q8ND30) stands inactive: 0.201. Under POLR2J (UniProt P52435) stands inactive: -0.064. Regarding POSTN (UniProt Q15063), the log2 fold change is inactive: 0.008. Regarding POGZ (UniProt Q7Z3K3), the log2 fold change is inactive: -0.026. For PPA1 (UniProt Q15181) the value was inactive: 0.038; for POC1B (UniProt Q8TC44), inactive: 0.042. Under PLSCR3 (UniProt Q9NRY6) stands inactive: -0.068.
